# Experimental data taken from PMC4841779.
# Amino acid sequences for entries named in this document (tags omitted). Residues count along the entry.
# UniProt P46108, residues 13-118: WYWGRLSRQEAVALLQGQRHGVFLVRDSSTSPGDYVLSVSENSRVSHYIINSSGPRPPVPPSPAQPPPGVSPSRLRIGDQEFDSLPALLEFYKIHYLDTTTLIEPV
# UniProt P46109, residues 14-102: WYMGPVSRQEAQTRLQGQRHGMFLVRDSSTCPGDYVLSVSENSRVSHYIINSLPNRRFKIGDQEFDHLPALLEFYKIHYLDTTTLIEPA
# UniProt P06241, residues 149-246: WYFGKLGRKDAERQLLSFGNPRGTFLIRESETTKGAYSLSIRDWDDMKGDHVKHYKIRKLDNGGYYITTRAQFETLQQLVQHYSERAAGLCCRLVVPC
# UniProt P07947, residues 158-255: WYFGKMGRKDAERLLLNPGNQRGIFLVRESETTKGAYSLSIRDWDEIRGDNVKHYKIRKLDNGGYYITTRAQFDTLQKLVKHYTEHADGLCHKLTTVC
# These are yes or no findings as the source states them, for the method shown. Some binding calls cover weakened binding; strength is not graded here. Tags and fused reporters may be left off the sequences shown.
# B1: GST-EAT2 SH2 domain probe (domain or fragment, UniProt O14796 5-101)
# chain: YYHGRLTKQDCETLLLKEGVDGNFLLRDSESIPGVLCLCVSFKNIVYTYRIFREKHGYYRIQTAEGSPKQVFPSLKELISKFEKPNQGMVVHLLKPI
# B2: GST-VAV2 SH2 domain probe (domain or fragment, UniProt P52735 673-767)
# chain: WFAGNMERQQTDNLLKSHASGTYLIRERPAEAERFAISIKFNDEVKHIKVVEKDNWIHITEAKKFDSLLELVEYYQCHSLKESFKQLDTTLKYPY
# B3: GST-GRB14 SH2 domain probe (domain or fragment, UniProt Q14449 439-535)
# chain: WFHHKISRDEAQRLIIQQGLVDGVFLVRDSQSNPKTFVLSMSHGQKIKHFQIIPVEDDGEMFHTLDDGHTRFTDLIQLVEFYQLNKGVLPCKLKHYC
# B4: GST-SHIP2 SH2 domain probe (domain or fragment, UniProt O15357 21-117)
# chain: WYHRDLSRAAAEELLARAGRDGSFLVRDSESVAGAFALCVLYQKHVHTYRILPDGEDFLAVQTSQGVPVRRFQTLGELIGLYAQPNQGLVCALLLPV
# B5: GST-ARG SH2 domain probe (domain or fragment, UniProt P42684 173-263)
# chain: WYHGPVSRSAAEYLLSSLINGSFLVRESESSPGQLSISLRYEGRVYHYRINTTADGKVYVTAESRFSTLAELVHHHSTVADGLVTTLHYPA
# Target: EGFR, tyrosine-phosphorylated (~195 kDa band of A431 lysate) (human (endogenous in A431)) (UniProt P00533)
# Assay: far-Western, overlay or dot blot; lysates of starved A431 cells stimulated with 25 ng/ml EGF (60-min time course; also 1 and 10 ng/ml EGF, or pervanadate), 20 μg per lane on LDS-PAGE, transferred to nitrocellulose; blotted 2 hr with 1–5 ng/ml recombinant GST-SH2/PTB labeled with GSH-HRP and anti-GST-HRP in 5% milk-TBST; bands identified by immunodepletion; only the binder purified
row,binding,Molecule
1,binds,GST-ABL SH2 domain probe (from UniProt P00519 127-217) (domain or fragment)
2,binds,GST-CRK SH2 domain probe (from UniProt P46108 13-118) (domain or fragment)
3,binds,GST-CRKL SH2 domain probe (from UniProt P46109 14-102) (domain or fragment)
4,binds,GST-FYN SH2 domain probe (from UniProt P06241 149-246) (domain or fragment)
5,binds,GST-GRB7 SH2 domain probe (from UniProt Q14451 431-527) (domain or fragment)
6,binds,GST-YES SH2 domain probe (from UniProt P07947 158-255) (domain or fragment)
7,binds,B1
8,binds,B2
9,binds,B3
10,binds,B4
11,binds,B5
